The list shows a part of the results. These are further read-outs of the screen, such as a control signal, another cell line or another target. No call is given for them. Most of these compounds were active or inconclusive in the main read-out, so they are no random draw. Words in brackets tell the shape of the fitted curve; partial curves, single points and poor fits give uncertain potencies.
Test: qHTS Assay to Find Inhibitors of Chronic Active B-Cell Receptor Signaling
Settings: ABC-DLBCL IkBa-CBG/CBR reporter, luminescence ratio (green luciferase fused to IkBa over red control in TMD8 lymphoma cells), 4 h
In short: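 Cell line TMD8 (human ABC DLBCL), stably expressing tet-inducible CBG68-IkBa fusion and CBR; IMDM/0.5% FBS; cpd up to 46 uM; dox induction, 4 h, 37C/5% CO2; dual luminescence; green/red ratio; MG132 control.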

[1] = measured here: CBR red luminescence, cell number
[2] = measured here: IkBa-CBG green luminescence

## NS(=O)(=O)c1ccc2c(c1)C1C=CCC1C(C1CC=CCC1)N2 (stereo not drawn)
[1]
  AC50: 3.26 µM [rising, partial curve, poor fit]

## N/C(=N\c1nc2ccccc2o1)NC(=O)c1ccccc1
[1]
  AC50: 1.84 µM [falling, full curve]

## CC(=O)Nc1nc(-c2ccc3ccccc3c2)cs1
[1]
  AC50: 2.24 µM [rising, partial curve]

## O=C(Nc1cccc(S(=O)(=O)Nc2ccc(Cl)cc2)c1)c1ccc(Cl)nc1
[1]
  AC50: 18.4 µM [falling, partial curve, poor fit]

## Cc1nn(CC(C)C)c(Cl)c1C(=O)N(c1ccc(Cl)cc1F)S(C)(=O)=O
[1]
  AC50: 11.2 µM [falling, partial curve, poor fit]

## CC(=O)Nc1ccc(NC(=O)c2ccc(C)c(S(=O)(=O)Nc3cccc(C)c3)c2)cc1
[1]
  AC50: 35.5 µM [falling, single point]

## C=CC(=O)Nc1ccc(Nc2nc(NC3CCC(N(C)C)CC3)nc3c2ncn3C(C)C)cc1 (stereo not drawn)
[1]
  AC50: 6.51 µM [falling, full curve]

## CCOc1ccc(N=Cc2c(C)[nH]n(-c3nc4ccccc4[nH]3)c2=O)cc1
[1]
  AC50: 2.59 µM [falling, full curve]

## Oc1ccccc1OCc1nc2ccccc2s1
[1]
  AC50: 18.4 µM [falling, single point]

## Cc1c(C(=O)NN)[nH]c2ccc([N+](=O)[O-])cc12
[1]
  AC50: 10 µM [falling, partial curve]

## COc1cccc(C(=O)N/N=C/c2cn[nH]c2-c2ccc(OC)cc2OC)c1
[1]
  AC50: 5.01 µM [falling, full curve]

## N#CCCN/N=C(\Cc1nc2ccccc2[nH]1)c1ccccc1
[1]
  AC50: 29.1 µM [falling, single point]

## CC(C)CCn1c(O)c(N=NC(=O)c2ccco2)c2ccccc21
[1]
  AC50: 4.61 µM [rising, full curve]

## Oc1c(CN2CCN(c3ccccn3)CC2)cc(Cl)c2cccnc12
[1]
  AC50: 6.51 µM [rising, partial curve, poor fit]

## CC1(c2nnc(-c3ccc(Cl)cc3)o2)CC(c2cccc(Cl)c2)=NO1 (stereo not drawn)
[1]
  AC50: 22.4 µM [rising, single point]

## Cc1noc(C)c1COc1ccccc1C(=O)NCCc1ccc(Cl)cc1
[1]
  AC50: 0.92 µM [rising, full curve]

## COc1cccc(C(=O)N2N=C(c3cccc(OC)c3)CC2(O)C(F)(F)F)c1 (stereo not drawn)
[1]
  AC50: 10 µM [falling, partial curve, poor fit]

## COc1cccc(C2Nc3cccc4cccc(c34)N2)c1
[1]
  AC50: 6.31 µM [rising, single point]

## COc1ccc(Cl)cc1C(=O)NNC(=O)c1ccncc1
[1]
  AC50: 35.5 µM [falling, single point]

## CCCCCCOc1ccc(C(=O)O)cc1
[1]
  AC50: 35.5 µM [falling, single point]

## CCc1ccc(C2=NN(CCC(=O)NCCc3ccc(Cl)cc3)C(=O)CC2)cc1
[1]
  AC50: 35.5 µM [falling, single point]

## COc1ccc(NC(=O)c2ccc(OCC3CCCO3)cc2)cc1OC (stereo not drawn)
[1]
  AC50: 23.1 µM [falling, single point]

## CCCN(CC(=O)Nc1cc(Cl)ccc1Cl)C(=O)c1ccccn1
[1]
  AC50: 3.66 µM [rising, full curve]

## COc1cccc(C2=NNC(=NCc3ccccc3)SC2)c1
[1]
  AC50: 7.08 µM [falling, partial curve, poor fit]

## Cc1ccc(Sc2ccc(N)cn2)cc1
[1]
  AC50: 0.631 µM [falling, partial curve, poor fit]

## O=C(COC(=O)c1ccncc1)Nc1ccc2c(c1)OCO2
[1]
  AC50: 6.51 µM [falling, partial curve, poor fit]

## O=C(N/N=C(\CC(=O)c1cccs1)C(F)(F)F)c1ccncc1
[1]
  AC50: 35.5 µM [falling, single point]

## CC(CNC(=O)c1cc(COc2ccc3ncccc3c2)on1)c1ccccc1 (stereo not drawn)
[1]
  AC50: 35.5 µM [falling, single point]

## Cc1nnc(Nc2ccc(Cl)c(C(F)(F)F)c2)[nH]c1=O
[1]
  AC50: 3.55 µM [rising, full curve, poor fit]

## COc1ccc(-c2c(C)cc3oc(=O)cc(-c4ccccc4)c3c2C)cc1OC
[1]
  AC50: 4.11 µM [rising, partial curve, poor fit]

## FC(F)(F)c1cccc(Nc2ncnc3ccccc23)c1
[1]
  AC50: 16.4 µM [rising, partial curve, poor fit]
[2]
  AC50: 29.1 µM [falling, single point]

## CN(O)/C=c1/ccc2c(n1)C(=O)C=CC=2
[1]
  AC50: 16.4 µM [rising, single point]
[2]
  AC50: 18.4 µM [falling, single point]

## CCOC(=O)c1ccc(NC(=O)CN2C(=O)NC3(CCC(C)CC3)C2=O)cc1 (stereo not drawn)
[1]
  AC50: 35.5 µM [falling, single point]

## O=c1c2ccccc2nc(SCc2ccc(F)cc2Cl)n1CCCN1CCOCC1
[1]
  AC50: 6.31 µM [rising, single point]

## CCCN(C(=O)c1cc(S(=O)(=O)N2CCCCCC2)ccc1OC)C1CCS(=O)(=O)C1 (stereo not drawn)
[1]
  AC50: 14.6 µM [rising, partial curve, poor fit]

## CN1CCN(C(=O)/C(=C\c2cccs2)NC(=O)c2ccccc2)CC1
[1]
  AC50: 12.6 µM [rising, partial curve, poor fit]

## CCOc1ccccc1C(=O)NN1C(=O)C2CCCCC2C1=O (stereo not drawn)
[1]
  AC50: 0.13 µM [rising, full curve, poor fit]

## CCc1c(C(=O)Nc2nnc(C3CC3)s2)csc1C
[1]
  AC50: 29.1 µM [rising, single point]

## Cc1sc2nc(CSc3ccccc3)nc(N3CCOCC3)c2c1C
[1]
  AC50: 5.8 µM [rising, full curve]

## CCOc1cc(/C=N/NC(=O)Cn2nc([N+](=O)[O-])cc2C)cc(Br)c1OCc1ccccc1C
[1]
  AC50: 4.61 µM [rising, single point]

## O=C(NC(=S)Nc1cnc2ccccc2c1)c1ccccc1
[1]
  AC50: 10 µM [falling, partial curve, poor fit]

## Cc1ccc(N(O)C(=O)OCCNC(=O)Nc2ccccc2)cc1
[1]
  AC50: 7.08 µM [rising, partial curve, poor fit]

## COc1ccccc1CNC(=O)COc1ccc(Br)c(C)c1
[1]
  AC50: 35.5 µM [falling, single point]

## COc1ccc(C(=O)NNC(=O)c2snnc2C)cc1
[1]
  AC50: 8.91 µM [falling, partial curve, poor fit]

## N#CC(C#N)=C1NC2(CCCCC2)Cc2ccccc21
[1]
  AC50: 15.8 µM [rising, single point]

## Cc1cccc(NC(=O)CN2C(=S)NC(C)(C)CC2C)c1 (stereo not drawn)
[1]
  AC50: 18.4 µM [falling, single point]

## Cc1c(Cl)cccc1NC(=O)C1COc2ccccc2O1 (stereo not drawn)
[1]
  AC50: 14.1 µM [rising, partial curve, poor fit]

## COc1ccc(CCNC(=O)c2ccc(CNS(=O)(=O)c3ccccc3)cc2)cc1OC
[1]
  AC50: 25.9 µM [rising, partial curve, poor fit]

## COc1ccc(CCNCC2C(Oc3ccc(Cl)cc3)C(=O)N2c2ccccc2C)cc1OC (stereo not drawn)
[1]
  AC50: 17.8 µM [falling, single point]

## C=CCOc1ccnc(-c2ccccc2)n1
[1]
  AC50: 0.447 µM [rising, full curve, poor fit]

## COc1ccc(OC)c2[nH]c(=O)c(CCNC(=O)c3ccc4c(c3)OCO4)cc12
[1]
  AC50: 0.891 µM [rising, partial curve, poor fit]

## O=C(Nc1ccccc1F)c1ccc(C(=O)c2ccccc2)cc1
[1]
  AC50: 5.01 µM [falling, partial curve, poor fit]

## O=C(Nc1cccc(-c2ccc(N3CCCCC3)nn2)c1)C(F)(F)F
[1]
  AC50: 6.31 µM [falling, partial curve, poor fit]

## O=C(Cn1nnc(-c2ccccc2-n2cnnn2)n1)c1ccccc1
[1]
  AC50: 3.66 µM [falling, full curve, poor fit]

## C/C(=N/NC(=O)c1ccco1)c1cccc(NC(=O)c2ccc(C)s2)c1
[1]
  AC50: 29.1 µM [falling, single point]

## COc1cccc(C(=O)OC2CCN(C)CC2)c1
[1]
  AC50: 35.5 µM [rising, single point]

## CCOC(=O)C1=C(C)N(c2ccccc2)C(=O)NC1c1cccc([N+](=O)[O-])c1 (stereo not drawn)
[1]
  AC50: 18.4 µM [falling, single point]

## Cc1ccccc1Nc1c(-c2ccncc2)nc2ccc(Cl)cn12
[1]
  AC50: 11.2 µM [falling, single point]
[2]
  AC50: 14.1 µM [rising, partial curve, poor fit]

## O=C(NCCC1=CCCCC1)C1CCN(C(=O)Nc2ccccc2)CC1
[1]
  AC50: 6.51 µM [rising, single point]

## Cc1ccc(/C=C2/SC(=S)N(CCC(=O)N3CCN(C)CC3)C2=O)cc1
[1]
  AC50: 11.2 µM [falling, partial curve, poor fit]

## Cc1ccc(NNC(=O)c2ccno2)c(C)c1
[1]
  AC50: 0.2 µM [rising, full curve, poor fit]

## O=C(COC(=O)c1ccc(Cl)nc1)NCc1cccs1
[1]
  AC50: 3.98 µM [rising, full curve, poor fit]

## O=C(O)c1ccc(S(=O)(=O)c2ccc3c(c2)C(=O)N(NC(=O)c2cccnc2)C3=O)cc1
[1]
  AC50: 11.2 µM [falling, single point]

## O=C(Nc1ccc(Cl)c([N+](=O)[O-])c1)ONC1=NCCCCC1
[1]
  AC50: 3.16 µM [falling, partial curve, poor fit]

## CC1(C)CC(=O)CC2(C1)NCC(c1ccccc1)c1c2[nH]c2ccccc12 (stereo not drawn)
[1]
  AC50: 35.5 µM [falling, single point]

Source: PubChem BioAssay AID493014 (National Center for Advancing Translational Sciences (NCATS), 2011)
